Laboratory results as given in patent publication US20080199846A1, “Poultry semen extender” (priority 2007, published 2008).

System: turkey sperm
Test: Phosphatidylcholine uptake by turkey sperm during 24 h in vitro storage (NBD-PC, flow cytometry)
Type: cell-based
Details: for percentage of unlabeled sperm: within the first 15 min of storage at 4° C.; for increase in MnFI: viable sperm

Substance: NBD (fluorochrome)-phosphatidycholine [NBD-labeled PC]
- percentage of unlabeled sperm (0.5 mg NBD-PC): 4.3%±0.2
- percentage of unlabeled sperm (2.5 mg NBD-PC): 2.1%±0.3
- percentage of unlabeled sperm (10 mg NBD-PC): 0.1%±0.02
- increase in MnFI (2.5 h of storage, 2.5 mg PC): 2 fold
- increase in MnFI (2.5 h of storage, 10 mg PC): 2 fold
- increase in MnFI (3 h of storage, 5 mg PC): 2 fold
- increase in MnFI (4 h of storage, 2.5 mg PC): 3 fold
- increase in MnFI (6 h of storage, 0.5 mg PC): 3 fold
- increase in MnFI (6 h of storage, 10 mg PC): 3 fold
- increase in MnFI (8 h of storage, 2.5 mg PC): 4 fold
- increase in MnFI (12 h of storage, 0.5 mg PC): 4 fold
- increase in MnFI (12 h of storage, 10 mg PC): 4 fold
- increase in MnFI (24 h of storage, 0.5 mg PC): 7.8 fold
- increase in MnFI (24 h of storage, 2.5 mg PC): 9.2 fold
- increase in MnFI (24 h of storage, 10 mg PC): 6.7 fold
- spermatozoa containing labeled PC (all other time-points of 24 h storage, including non-viable sperm): at least 98%
